In paper PMC7450955:
No constants are given. Whether binding was seen depends on the method and setting. Binding seen in cells or lysates may run through a third protein. Tags and fused reporters may be left off the sequences shown.

Target: T1, APOL1-A-FLAG (human) (UniProt O14791)
T1 sequence: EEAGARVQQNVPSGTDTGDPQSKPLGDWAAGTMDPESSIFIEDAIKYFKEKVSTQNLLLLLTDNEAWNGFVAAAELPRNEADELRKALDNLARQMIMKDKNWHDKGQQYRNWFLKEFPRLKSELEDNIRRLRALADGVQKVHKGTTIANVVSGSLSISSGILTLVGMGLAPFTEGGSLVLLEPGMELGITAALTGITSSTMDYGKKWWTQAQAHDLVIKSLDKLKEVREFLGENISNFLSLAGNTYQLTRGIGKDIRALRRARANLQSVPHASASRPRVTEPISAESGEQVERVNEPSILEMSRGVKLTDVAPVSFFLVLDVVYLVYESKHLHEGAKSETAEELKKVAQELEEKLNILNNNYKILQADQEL
Assay: co-IP; NLRP12 and FLAG-tagged APOL1 constructs cotransfected into HeLa cells; APOL1 immunoprecipitated with anti-FLAG antibodies; western analysis for NLRP12

B1: NLRP12 (transfected) (protein, UniProt P59046 1-1061)
chain: MLRTAGRDGLCRLSTYLEELEAVELKKFKLYLGTATELGEGKIPWGSMEKAGPLEMAQLLITHFGPEEAWRLALSTFERINRKDLWERGQREDLVRDTPPGGPSSLGNQSTCLLEVSLVTPRKDPQETYRDYVRRKFRLMEDRNARLGECVNLSHRYTRLLLVKEHSNPMQVQQQLLDTGRGHARTVGHQASPIKIETLFEPDEERPEPPRTVVMQGAAGIGKSMLAHKVMLDWADGKLFQGRFDYLFYINCREMNQSATECSMQDLIFSCWPEPSAPLQELIRVPERLLFIIDGFDELKPSFHDPQGPWCLCWEEKRPTELLLNSLIRKKLLPELSLLITTRPTALEKLHRLLEHPRHVEILGFSEAERKEYFYKYFHNAEQAGQVFNYVRDNEPLFTMCFVPLVCWVVCTCLQQQLEGGGLLRQTSRTTTAVYMLYLLSLMQPKPGAPRLQPPPNQRGLCSLAADGLWNQKILFEEQDLRKHGLDGEDVSAFLNMNIFQKDINCERYYSFIHLSFQEFFAAMYYILDEGEGGAGPDQDVTRLLTEYAFSERSFLALTSRFLFGLLNEETRSHLEKSLCWKVSPHIKMDLLQWIQSKAQSDGSTLQQGSLEFFSCLYEIQEEEFIQQALSHFQVIVVSNIASKMEHMVSSFCLKRCRSAQVLHLYGATYSADGEDRARCSAGAHTLLVQLPERTVLLDAYSEHLAAALCTNPNLIELSLYRNALGSRGVKLLCQGLRHPNCKLQNLRLKRCRISSSACEDLSAALIANKNLTRMDLSGNGVGFPGMMLLCEGLRHPQCRLQMIQLRKCQLESGACQEMASVLGTNPHLVELDLTGNALEDLGLRLLCQGLRHPVCRLRTLWLKICRLTAAACDELASTLSVNQSLRELDLSLNELGDLGVLLLCEGLRHPTCKLQTLRLGICRLGSAACEGLSVVLQANHNLRELDLSFNDLGDWGLWLLAEGLQHPACRLQKLWLDSCGLTAKACENLYFTLGINQTLTDLYLTNNALGDTGVRLLCKRLSHPGCKLRVLWLFGMDLNKMTHSRLAALRVTKPYLDIGC
In the case of B1, the binding is reported as “no binding”.
